Where “and” joins values, the source holds several entries; their conditions need not be identical. Equal entries are not always repeated. The campaign covered roughly 300,000 compounds. About 3,700 (1.2%) were called active. This list was built around the results that the source calls inconclusive (neither active nor inactive); the mix of calls is not that of the screen. The call rests on the fitted dose curve; tested in HEK293 cells. Where the call is inconclusive, the potency comes from a doubtful curve fit.
Assay: qHTS for Inhibitors of binding or entry into cells for Lassa Virus; further: nearly all actives have a fitted effect of over 50% in size
Settings: Lassa virus pseudotype entry inhibition, cell reporter; activity change, negative = inhibition: at 37.9 µM (top of the series) unless noted
On the % scale 0 is the no-effect control and ±100 the full control effect; potency means the concentration at half of the fitted maximal effect.

| SMILES | activity change, negative = inhibition | Potency |
| --- | --- | --- |
| O=C(COC(=O)c1cc([N+](=O)[O-])ccc1NCCO)c1ccccc1 | inactive: 12.1% |  |
| COc1ccccc1/C=N/NC(=O)CC(=O)NCc1cccnc1 |  | inconclusive: 3.16 µM [inhibitor, single point] |
| CSc1ncc(Cl)c(C(=O)Nc2cc(C(F)(F)F)ccc2Cl)n1 | inactive: 23.9% [at 46.1 µM] |  |
| CCC(=O)N/C(N)=N/c1nc2ccccc2o1 |  | inconclusive: 12.6 µM [inhibitor, single point] |
| Cc1ccc(NC(=O)c2sc(N)nc2-c2ccc([N+](=O)[O-])cc2)c(C)c1 |  | inconclusive: 1.78 µM [inhibitor, partial curve, poor fit] |
| COc1ccc(C)cc1N(CC(=O)NCCSCc1cccc(Cl)c1)S(C)(=O)=O |  | inconclusive: 3.16 µM [inhibitor, partial curve, poor fit] |
| O=C(CSC(=S)N1CCSCC1)c1ccccc1 | inactive: -29.9% |  |
| Cc1ccc(CN2CCC(CNC(=O)c3cnn(-c4ccccc4)c3C3CCN(C(=O)OC(C)(C)C)CC3)CC2)cc1 | inactive: 19.8% [at 46.1 µM] |  |
| Cc1ccc(S(=O)(=O)N2CCCCC2)cc1NC(=O)CSc1nncn1-c1ccccc1 |  | inconclusive: 5.62 µM [inhibitor, partial curve] |
| Cc1nc2sc(C(N)=O)c(N)c2c(C)c1CC(=O)c1ccccc1 | inactive: -19.6% [at 46.1 µM] |  |
| COc1ccc(/C=C(/NC(=O)c2ccc(Br)cc2)C(=O)N2CCOCC2)cc1 |  | inconclusive: 3.16 µM [activator, partial curve, poor fit] |
| CCOc1ccc(N2C(=O)c3ccccc3C2=O)cc1 |  | inconclusive: 0.92 µM [activator, full curve] |
| CCOCCn1ccc2c(OCC(=O)NCc3ccc(F)cc3)cccc2c1=O |  | inconclusive: 7.94 µM [inhibitor, partial curve, poor fit] |
| CCN1c2ccccc2-n2cccc2C12CCN(C(=O)Nc1ccccc1Br)CC2 |  | inconclusive: 5.01 µM [inhibitor, partial curve] |
| Cc1ccc2c(c1)[C@@H]1CN(C)CC[C@@H]1N2C(=O)Nc1cccc(C(F)(F)F)c1 | inactive: -6.53% |  |
| O=C(CCSCc1cccc(Cl)c1)NCc1ccccc1Cl |  | inconclusive: 0.562 µM [inhibitor, full curve, poor fit] |
| CCOC(=O)C1Cn2c(nc3c(c2=O)C(C)(CC)Cc2ccccc2-3)S1 (configuration not stated) |  | inconclusive: 17.8 µM [inhibitor, single point] |
| COCCNC(=O)c1ccc(S(=O)(=O)N2CCCc3ccccc32)cc1 |  | inconclusive: 11.2 µM [inhibitor, partial curve, poor fit] |
| CC(=O)Nc1ccc(S(=O)(=O)Nc2nnc(C(C)C)s2)cc1 |  | inconclusive: 0.0092 µM [inhibitor, full curve, poor fit] |
| COc1ccc(NS(=O)(=O)c2ccc(N/N=C/c3ccc(N4CCOCC4)cc3)c([N+](=O)[O-])c2)cc1 |  | inconclusive: 3.16 µM [activator, single point] |
| CCOc1ccc(N(C(C)C(=O)Nc2ccc(OC)cc2)S(C)(=O)=O)cc1 (configuration not stated) |  | inconclusive: 8.2 µM [inhibitor, partial curve, poor fit] |

Of the compounds above, 2 have bromine.

| SMILES | activity change, negative = inhibition | Potency |
| --- | --- | --- |
| COc1ccc(/C=C(/NC(=O)c2ccc(Br)cc2)C(=O)N2CCOCC2)cc1 |  | inconclusive: 3.16 µM [activator, partial curve, poor fit] |
| CCN1c2ccccc2-n2cccc2C12CCN(C(=O)Nc1ccccc1Br)CC2 |  | inconclusive: 5.01 µM [inhibitor, partial curve] |

(cont.)

| SMILES | activity change, negative = inhibition | Potency |
| --- | --- | --- |
| CN1CCN(C(=S)NC(=O)c2ccc(C(C)(C)C)cc2)CC1 |  | inconclusive: 29.1 µM [activator, single point] |
| O=C(CSc1ncc2c(n1)-c1cc(Cl)ccc1N(Cc1ccccc1)S2(=O)=O)Nc1ccc(F)cc1F |  | inconclusive: 35.5 µM [inhibitor, single point] |
| Cc1cc(OCCCC(=O)NC2=NCCS2)ccc1Cl | inactive: -14.5% |  |
| CC1C/C(=C/c2ccccn2)C(=O)/C(=C/c2ccccn2)C1 (configuration not stated) |  | active: 3.98 µM |
| Cc1[nH]c2ccccc2c1N=Nc1ccc(F)cc1 | inactive: 27.3% |  |
| Cc1ccc(-c2nn(-c3ccc(F)cc3F)c3c2cnc2ccc(F)cc23)cc1 | inactive: -16.2% [at 46.1 µM] |  |
| COc1ccc(CNC(=O)CC(C)n2nc(C)cc2C)cc1 (configuration not stated) |  | inconclusive: 12.6 µM [activator, single point] |
| Cc1nn(-c2ccccc2)c(C)c1/C=N/NC(=O)c1cc(C2CC2)[nH]n1 | inactive: -20.1% |  |
| O=C1C(NS(=O)(=O)c2cccs2)=C(N2CCN(c3cccc(C(F)(F)F)c3)CC2)C(=O)c2ccccc21 |  | inconclusive: 10 µM [inhibitor, partial curve] |
| COc1ccc(N(C)C(=O)c2nn(-c3ccc(C)cc3)c(=O)n(C)c2=O)c(OC)c1 | inactive: -18.6% [at 46.1 µM] |  |
| CN(C)C(=O)CCC(=O)N1CCCC(C(=O)c2ccc(C(F)(F)F)cc2)C1 (configuration not stated) |  | inconclusive: 12.6 µM [inhibitor, partial curve, poor fit] |
| CCn1c(CC(=O)Nc2ccccc2C)nnc1SCC(=O)NC1=NCCS1 |  | inconclusive: 3.55 µM [inhibitor, single point] |
| COc1ccc(C(F)(F)F)cc1N/C=C\c1nnnn1-c1ccc(C)cc1 |  | inconclusive: 11.6 µM [inhibitor, partial curve] |
| COC(=O)c1ccccc1NC(=O)CC(NCc1ccccc1)C(=O)O (configuration not stated) |  | inconclusive: 20.6 µM [inhibitor, partial curve, poor fit] |
| COCC(C)n1c(-c2ccc3c(c2)NC(=O)CO3)csc1=Nc1ccc(OC(F)F)cc1 (configuration not stated) |  | inconclusive: 1.64 µM [inhibitor, full curve] and inconclusive: 7.08 µM [inhibitor, partial curve, poor fit] |
| O=C(CCc1ccc(O)cc1)N/N=C/c1coc2ccccc2c1=O |  | inconclusive: 2.24 µM [inhibitor, partial curve, poor fit] |
| O=C1c2ccccc2NC2(CCCCC2)N1c1ccc(O)cc1 | inactive: -26.4% |  |
| O=C(NC(=S)Nc1ccc(Cl)cc1)c1cncc(Br)c1 | inactive: 2.1% [at 46.1 µM] |  |
| Cc1ccc2c(C)c(C(=O)N(Cc3ccc(F)cc3)C3CCS(=O)(=O)C3)oc2c1 (configuration not stated) |  | inconclusive: 12.6 µM [inhibitor, partial curve] |
| Nc1nn(-c2ccccc2)c(N)c1N=Nc1ccccc1 |  | inconclusive: 7.08 µM [inhibitor, partial curve, poor fit] |
| CS(=O)(=O)N1CCN(c2ccccc2NC(=O)c2ccc(-c3ccc(Cl)cc3Cl)o2)CC1 |  | inconclusive: 11.2 µM [inhibitor, partial curve, poor fit] |

From PubChem BioAssay AID540256 (National Center for Advancing Translational Sciences (NCATS), 2011)
